Measured values: paper doi:10.1101/2020.06.08.140590
No constants are given. Whether binding was seen depends on the method and setting. Binding seen in cells or lysates may run through a third protein. Some binding calls cover weakened binding; strength is not graded here.

Chains of the proteins cited; added tags and fusions are not shown.
UniProt Q9UKV8: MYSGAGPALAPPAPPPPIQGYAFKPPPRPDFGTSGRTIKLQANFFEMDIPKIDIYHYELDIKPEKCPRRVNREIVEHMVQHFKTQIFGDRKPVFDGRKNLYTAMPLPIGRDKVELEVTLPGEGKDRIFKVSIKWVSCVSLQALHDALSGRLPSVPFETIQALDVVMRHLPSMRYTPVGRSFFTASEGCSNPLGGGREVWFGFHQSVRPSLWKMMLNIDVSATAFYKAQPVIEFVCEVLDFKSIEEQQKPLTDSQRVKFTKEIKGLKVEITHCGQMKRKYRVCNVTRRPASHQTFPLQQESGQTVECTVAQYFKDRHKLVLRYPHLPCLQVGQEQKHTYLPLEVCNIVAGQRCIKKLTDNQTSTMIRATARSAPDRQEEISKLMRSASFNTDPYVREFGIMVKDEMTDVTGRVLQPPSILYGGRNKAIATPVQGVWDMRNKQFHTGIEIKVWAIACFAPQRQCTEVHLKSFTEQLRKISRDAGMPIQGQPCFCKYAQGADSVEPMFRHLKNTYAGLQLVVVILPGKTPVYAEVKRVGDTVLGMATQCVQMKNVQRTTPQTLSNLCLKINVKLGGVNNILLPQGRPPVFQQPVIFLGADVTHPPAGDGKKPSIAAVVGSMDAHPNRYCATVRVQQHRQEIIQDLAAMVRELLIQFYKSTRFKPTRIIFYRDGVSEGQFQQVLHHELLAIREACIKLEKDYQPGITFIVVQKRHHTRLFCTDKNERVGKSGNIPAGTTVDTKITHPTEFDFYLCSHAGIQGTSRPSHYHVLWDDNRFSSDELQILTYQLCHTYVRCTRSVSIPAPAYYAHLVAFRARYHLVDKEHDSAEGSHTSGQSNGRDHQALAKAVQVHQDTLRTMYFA

Columns and labels:
[1] = molecular target: HA-Ago1 (FLAG/HA-tagged Argonaute 1) (human) (UniProt Q9UL18); assay: co-IP
[2] = molecular target: HA-Ago2 (FLAG/HA-tagged Argonaute 2) (human) (UniProt Q9UKV8); assay: co-IP

binding [1]	binding [2]	Substance
binds	binds	HSC70, endogenous (from UniProt P11142 1-646)
binds	binds	HSPA1A (heat shock 70KDa protein 1A), endogenous (from UniProt P0DMV8 1-641)
